Data: ChEMBL document CHEMBL4311986, “Synthesis and biological evaluation of new multi-target 3-(1H-indol-3-yl)pyrrolidine-2,5-dione derivatives with potential antidepressant effect” (Eur J Med Chem, 2019)
Where a name gives a salt, the structure may show the parent alone.

Sequences of proteins named here, by UniProt entry; tags and fusion partners are left off.
UniProt P41595, whole entry: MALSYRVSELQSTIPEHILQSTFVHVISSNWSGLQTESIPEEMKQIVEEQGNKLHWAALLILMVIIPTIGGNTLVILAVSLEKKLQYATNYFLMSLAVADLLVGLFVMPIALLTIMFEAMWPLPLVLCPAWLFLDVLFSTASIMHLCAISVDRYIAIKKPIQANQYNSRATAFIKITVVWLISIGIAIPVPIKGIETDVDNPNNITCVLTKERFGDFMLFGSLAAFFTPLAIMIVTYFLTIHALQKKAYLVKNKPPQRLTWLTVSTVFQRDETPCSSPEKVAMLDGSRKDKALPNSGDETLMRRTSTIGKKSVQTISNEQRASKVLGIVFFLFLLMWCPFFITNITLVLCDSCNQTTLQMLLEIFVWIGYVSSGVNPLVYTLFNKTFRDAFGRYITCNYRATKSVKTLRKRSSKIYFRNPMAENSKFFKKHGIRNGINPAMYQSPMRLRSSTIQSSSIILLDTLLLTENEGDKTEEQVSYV

Target: 5-hydroxytryptamine receptor 2B (Homo sapiens, UniProt P41595)
Test: Binding affinity to 5-HT2BR (unknown origin)

CC[C@@H](CO)NC(=O)[C@@H]1C=C2c3cccc4c3c(cn4C)C[C@H]2N(C)C1 [METHYSERGIDE MALEATE]
Ki: 1.9 nM
